Values quoted from earlier work as cited in article PMC8302504, “Efficacy of Fenfluramine and Norfenfluramine Enantiomers and Various Antiepileptic Drugs in a Zebrafish Model of Dravet Syndrome” (Neurochemical Research, 2021).

Conditions: 5 dpf zebrafish larvae, 1 h incubation with 15 µg/mL; cited from earlier work

CN(C)CCOC(c1ccccc1)c1ccccc1 [diphenhydramine]
head uptake (recovered concentration): 115.5 µg/g
